# Data taken from publication PMC12672436 (Frontiers in Pharmacology, 2025).
# How the values were obtained:
# [1] = biological target: T1, human OCT1 (Homo sapiens, UniProt O15245); experiment: cell-based
# T1 sequence (O15245 1-554): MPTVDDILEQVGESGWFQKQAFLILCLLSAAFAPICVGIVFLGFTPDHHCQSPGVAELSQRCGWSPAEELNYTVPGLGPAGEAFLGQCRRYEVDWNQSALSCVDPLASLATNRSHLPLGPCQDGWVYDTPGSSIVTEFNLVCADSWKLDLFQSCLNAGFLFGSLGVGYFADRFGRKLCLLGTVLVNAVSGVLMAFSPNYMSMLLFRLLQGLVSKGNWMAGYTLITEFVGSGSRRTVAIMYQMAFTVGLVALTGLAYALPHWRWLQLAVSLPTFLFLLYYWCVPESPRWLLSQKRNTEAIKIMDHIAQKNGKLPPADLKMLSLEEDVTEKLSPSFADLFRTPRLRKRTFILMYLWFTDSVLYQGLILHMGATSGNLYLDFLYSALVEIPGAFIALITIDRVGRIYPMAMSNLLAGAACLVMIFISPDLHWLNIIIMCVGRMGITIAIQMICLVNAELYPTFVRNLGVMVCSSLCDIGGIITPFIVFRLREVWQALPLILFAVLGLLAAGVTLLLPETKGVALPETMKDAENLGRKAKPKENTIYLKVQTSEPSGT
# Description: (§1) Cells were cultured in Dulbecco’s modified Eagle’s medium (DMEM) supplemented with 10% fetal bovine serum and 250 μg/mL geneticin to maintain selection pressure.
# (§2) HEK293 cells heterologously expressing the respective transporters were seeded onto poly-D-lysine (PDL)-coated 96-well plates at a density of ∼36,000 cells per well, 1 day before experiments. For the experiment, medium was replaced with 200 µL Krebs HEPES buffer (KHB; 120 mM NaCl, 3 mM KCl, 2 mM CaCl2·2H2O, 2 mM MgCl2·6H2O, 20 mM D-glucose, pH 7.3). Test compounds were dissolved in Milli-Q water or dimethyl sulfoxide (DMSO) at 10–100 mM stock concentrations. Cells were preincubated for 5 min with the compound of interest (diluted in KHB to the indicated concentrations). The preincubation solution was then replaced with 50 µL/well of diluted compound together with tritiated substrate (DAT, OCT1, OCT2, OCT3: 0.05 μM [^3H]MPP^+; NET: 0.02 μM [^3H]MPP^+; SERT: 0.1 μM [^3H]5-HT) for 1 min (SERT) or 3 min (DAT, NET, OCT1– OCT3). After the incubation, uptake was terminated by rapidly washing cell with 200 μL KHB, followed by addition of 200 μL Ultima Gold™ XR scintillation cocktail (PerkinElmer, MA, United States) to each well. […]
# (§3) Uptake is expressed as a percentage of control (uptake in the absence of test compound). […]
# [2] = biological target: T2, human OCT2 (Homo sapiens, UniProt O15244); experiment: cell-based
# T2 sequence (O15244 1-555): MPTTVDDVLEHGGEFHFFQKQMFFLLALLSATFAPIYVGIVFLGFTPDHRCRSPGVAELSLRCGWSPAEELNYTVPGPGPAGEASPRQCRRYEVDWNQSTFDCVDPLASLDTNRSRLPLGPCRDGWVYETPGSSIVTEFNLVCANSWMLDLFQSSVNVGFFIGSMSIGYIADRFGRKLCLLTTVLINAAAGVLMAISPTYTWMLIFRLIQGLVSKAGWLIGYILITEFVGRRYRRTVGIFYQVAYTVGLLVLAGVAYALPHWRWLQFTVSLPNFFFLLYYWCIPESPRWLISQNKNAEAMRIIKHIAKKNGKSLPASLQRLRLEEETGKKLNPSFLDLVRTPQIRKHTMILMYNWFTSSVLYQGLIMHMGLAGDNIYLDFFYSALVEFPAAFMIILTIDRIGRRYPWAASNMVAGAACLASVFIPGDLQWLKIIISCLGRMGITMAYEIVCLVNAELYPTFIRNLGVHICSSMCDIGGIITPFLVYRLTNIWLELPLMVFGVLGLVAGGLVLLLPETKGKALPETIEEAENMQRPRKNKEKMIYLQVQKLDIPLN
# Description: as §1, §2, §3
# [3] = biological target: T3, human OCT3 (Homo sapiens, UniProt O75751); experiment: Uptake inhibition assay, OCT3; type: cell-based; conditions: HEK293 cells expressing human OCT3, 0.05 µM [3H]MPP+
# T3 construct: expressed in transfected cells
# T3 sequence (O75751 1-556): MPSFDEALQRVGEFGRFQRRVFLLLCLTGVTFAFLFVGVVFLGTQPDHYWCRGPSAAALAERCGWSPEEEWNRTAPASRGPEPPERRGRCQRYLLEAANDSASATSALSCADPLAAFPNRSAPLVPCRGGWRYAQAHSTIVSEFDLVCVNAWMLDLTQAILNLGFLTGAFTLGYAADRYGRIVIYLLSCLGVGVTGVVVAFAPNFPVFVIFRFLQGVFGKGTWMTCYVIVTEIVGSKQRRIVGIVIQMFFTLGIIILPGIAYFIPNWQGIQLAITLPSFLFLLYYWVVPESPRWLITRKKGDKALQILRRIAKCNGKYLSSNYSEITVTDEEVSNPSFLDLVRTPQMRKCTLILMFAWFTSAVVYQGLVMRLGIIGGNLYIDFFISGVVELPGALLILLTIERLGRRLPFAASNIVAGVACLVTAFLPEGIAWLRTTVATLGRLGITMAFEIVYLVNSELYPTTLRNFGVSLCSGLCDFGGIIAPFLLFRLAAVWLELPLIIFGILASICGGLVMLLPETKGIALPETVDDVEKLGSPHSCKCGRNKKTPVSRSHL
# Description: Human embryonic kidney (HEK293) cells stably expressing the human isoform (h) of the transporters were grown at 37 °C in a humidified atmosphere of 5% CO2, described in detail in [Mayer et al. (2018)]. Cells were cultured in Dulbecco’s modified Eagle’s medium (DMEM) supplemented with 10% fetal bovine serum and 250 μg/mL geneticin to maintain selection pressure.
# HEK293 cells heterologously expressing the respective transporters were seeded onto poly-D-lysine (PDL)-coated 96-well plates at a density of ∼36,000 cells per well, 1 day before experiments. For the experiment, medium was replaced with 200 µL Krebs HEPES buffer (KHB; 120 mM NaCl, 3 mM KCl, 2 mM CaCl2·2H2O, 2 mM MgCl2·6H2O, 20 mM D-glucose, pH 7.3). Test compounds were dissolved in Milli-Q water or dimethyl sulfoxide (DMSO) at 10–100 mM stock concentrations. Cells were preincubated for 5 min with the compound of interest (diluted in KHB to the indicated concentrations). […] Radioactive uptake was quantified by liquid scintillation counting using a Wallac 1450 MicroBeta TriLux counter (PerkinElmer; GMI, Ramsey, MN, United States). […]
# FIGURE 3 Inhibition of substrate uptake by local anesthetics at OCT1–3. […] Uptake is expressed as a percentage of control (uptake in the absence of test compound). […]
compound,measurement,setting,value
CCN(CC)CC(=O)Nc1c(C)cccc1C [lidocaine],IC50,[1],79 to 252 µM
same,IC50,[2],23 to 90 µM
same,Inhibition of OCT3-mediated transport (in words),[3],"none of the compounds—cocaine, procaine, or lidocaine—substantially inhibited OCT3-mediated transport except at near-millimolar concentrations"
